Experimental data from patent US10324085B2, “Systems and methods for the monitoring of protein complex formation in cells” (priority 2013, dated 2019).
At least one structure is not confirmed: it was looked up by name or label, or the drawing left a doubt.

Chains of the proteins cited; added tags and fusions are not shown. A line that says so, or that is headed by a name, gives the form on record, which may keep a tag or linker.
UniProt Q92731, whole entry: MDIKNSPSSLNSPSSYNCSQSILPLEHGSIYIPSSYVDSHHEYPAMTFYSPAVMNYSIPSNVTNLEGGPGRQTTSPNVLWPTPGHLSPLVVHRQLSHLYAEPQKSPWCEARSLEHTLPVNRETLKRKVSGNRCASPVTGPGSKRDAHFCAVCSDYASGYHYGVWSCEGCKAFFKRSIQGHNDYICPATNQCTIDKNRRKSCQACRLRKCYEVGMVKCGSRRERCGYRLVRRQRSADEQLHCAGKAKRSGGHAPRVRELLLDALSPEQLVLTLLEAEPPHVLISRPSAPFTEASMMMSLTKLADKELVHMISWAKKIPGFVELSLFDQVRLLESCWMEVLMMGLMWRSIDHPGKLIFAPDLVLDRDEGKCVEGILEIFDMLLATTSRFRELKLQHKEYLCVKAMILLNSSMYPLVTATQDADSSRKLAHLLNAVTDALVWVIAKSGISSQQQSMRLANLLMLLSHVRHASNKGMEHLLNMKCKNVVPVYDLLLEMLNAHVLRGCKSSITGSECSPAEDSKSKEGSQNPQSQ
UniProt P03372, whole entry: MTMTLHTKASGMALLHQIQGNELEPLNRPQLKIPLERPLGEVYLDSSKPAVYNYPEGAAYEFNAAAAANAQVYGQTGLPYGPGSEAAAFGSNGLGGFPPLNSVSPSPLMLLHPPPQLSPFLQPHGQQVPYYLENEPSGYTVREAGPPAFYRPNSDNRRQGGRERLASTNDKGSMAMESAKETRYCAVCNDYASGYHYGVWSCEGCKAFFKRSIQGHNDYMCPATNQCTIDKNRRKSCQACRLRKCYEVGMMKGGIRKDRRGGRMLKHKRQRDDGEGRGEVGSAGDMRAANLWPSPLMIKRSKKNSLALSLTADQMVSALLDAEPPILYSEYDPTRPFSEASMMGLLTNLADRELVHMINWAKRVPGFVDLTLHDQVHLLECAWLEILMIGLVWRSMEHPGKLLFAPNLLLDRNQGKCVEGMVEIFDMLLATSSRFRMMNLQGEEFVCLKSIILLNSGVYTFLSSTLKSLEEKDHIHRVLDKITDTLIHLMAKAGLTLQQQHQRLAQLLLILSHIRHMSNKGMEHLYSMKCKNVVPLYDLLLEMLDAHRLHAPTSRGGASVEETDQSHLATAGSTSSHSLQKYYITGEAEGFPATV
ERβ-ERβ (Homo sapiens, UniProt Q92731), as listed by the source partner: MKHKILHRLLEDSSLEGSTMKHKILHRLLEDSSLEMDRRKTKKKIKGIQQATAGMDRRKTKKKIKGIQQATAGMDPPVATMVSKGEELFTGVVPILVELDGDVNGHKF

Key:
Type in all cases: cell-based
ERβ-ERβ = target: T1, ERβ-ERβ (Homo sapiens, UniProt Q92731); conditions: BRETFect, FIG. 10
T1 construct: expressed in transfected cells; host or cells: HEK293

ERα-ERβ [1] = target: T2, ERα-ERβ (Homo sapiens, UniProt P03372+Q92731); conditions: BRETFect, FIG. 10E-F
T2 construct: expressed in transfected cells; host or cells: HEK293

ERα-ERα = target: T3, ERα-ERα (Homo sapiens, UniProt P03372); conditions: BRETFect, FIG. 10
T3 construct: expressed in transfected cells; host or cells: HEK293

ERα-ERβ [2] = target: T2, ERα-ERβ

What does the source list for CCCc1c(-c2ccc(O)cc2)nn(-c2ccc(O)cc2)c1-c1ccc(O)cc1 [PPT, propylpyrazole triol]?
activation of ERβ homodimers (CoApep recruitment) (ERβ-ERβ): but not ERβhomodimers; recruitment of the entire SRC1 RID to the heterodimer (ERα-ERβ [1]): promoted recruitment; activation of ERα homodimers (CoApep recruitment) (ERα-ERα): activated; activation of the ERα-ERβ heterodimer (CoApep recruitment) (ERα-ERβ [2]; BRETFect, FIG. 10): PPT-stimulated coactivator recruitment; recruitment capacity for CoApep in the heterodimer (ERα-ERβ [2]; compared to E2 or DPN, titration curves): reduced by half
